Results are given in words; binding and its absence hold for the method and conditions named.
Key:
[1] = target: Proliferating Cell Nuclear Antigen (PCNA), wild type (yeast) (UniProt P15873); assay: SEC; as the PCNA-CAF-1 SEC experiment but in the absence of DNA (Supplementary Figures S1E, S3B); both purified
[2] = target: Proliferating Cell Nuclear Antigen (PCNA), wild type (yeast) (UniProt P15873); assay: condition: only ATP omitted, PCNA not loaded onto DNA; SEC; as the PCNA-CAF-1 SEC experiment with nicked plasmid but ATP omitted, so that PCNA is not loaded onto DNA (Figure 1C); both purified

Amino acid sequences for entries named in this document (tags omitted).
UniProt P15873: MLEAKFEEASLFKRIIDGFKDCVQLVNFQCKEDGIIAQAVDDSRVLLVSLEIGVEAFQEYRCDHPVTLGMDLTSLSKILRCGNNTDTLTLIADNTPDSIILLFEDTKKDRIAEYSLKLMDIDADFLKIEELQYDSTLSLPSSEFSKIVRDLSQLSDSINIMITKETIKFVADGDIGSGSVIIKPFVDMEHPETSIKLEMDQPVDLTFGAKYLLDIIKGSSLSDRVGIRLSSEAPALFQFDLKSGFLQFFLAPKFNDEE

## Chromatin Assembly Factor-1 (CAF-1), wild type (from UniProt Q12495 1-606; Q04199 1-468; P13712 1-422) (complex)
[1]
  binding: no binding (condition: in the absence of DNA)
[2]
  binding: no binding

— article PMC10164577
